Article doi:10.1101/2021.08.06.455464

Sequences of proteins named here, by UniProt entry; tags and fusion partners are left off. A change or cut given only in a name is not applied to a line headed by its entry.
UniProt Q13283, whole entry, stated change not applied: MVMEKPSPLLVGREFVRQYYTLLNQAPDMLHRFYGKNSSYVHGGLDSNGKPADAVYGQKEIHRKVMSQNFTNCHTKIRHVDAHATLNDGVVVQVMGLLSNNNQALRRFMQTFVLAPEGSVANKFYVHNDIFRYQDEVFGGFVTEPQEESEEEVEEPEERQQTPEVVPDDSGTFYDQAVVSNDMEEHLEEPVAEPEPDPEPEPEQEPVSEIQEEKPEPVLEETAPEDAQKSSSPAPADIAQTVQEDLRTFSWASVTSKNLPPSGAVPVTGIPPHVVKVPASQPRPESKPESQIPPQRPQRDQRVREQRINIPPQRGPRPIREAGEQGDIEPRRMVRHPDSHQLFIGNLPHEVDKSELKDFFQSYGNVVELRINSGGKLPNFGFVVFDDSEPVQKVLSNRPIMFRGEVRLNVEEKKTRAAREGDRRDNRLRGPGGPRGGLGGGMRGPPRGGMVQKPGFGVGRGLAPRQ

Biological target: GFP-G3BP1 (Ras-GTPase activating SH3 domain binding protein 1) (UniProt Q13283)
Assay: affinity purification with mass spectrometry

| Substance | binding |
| --- | --- |
| ELAVL1 (from UniProt Q15717 1-326) | binds |
| SRSF2 (from UniProt Q01130 1-221) | binds |
| DDX21 (from UniProt Q9NR30 1-783) | binds |

No constants are given. Whether binding was seen depends on the method and setting. Binding seen in cells or lysates may run through a third protein. Here binding means that the protein was enriched with, or labelled near, the bait; the list need not be complete.
